Test results taken from PubChem BioAssay (NCATS).
Inconclusive means that the source gave no clear call. Such entries were picked first, then a sample of the others. For part of these data: A potency beside an inconclusive call is a rough fit, not a confirmed value. For part of these data: “Side channel” marks fits to a control or component signal instead of the main read-out. Active and inactive are the calls of the source. Unless noted, calls follow the shape of the dose curve; as a rule, active = well fitted curve in the direction sought with a large enough effect; inconclusive = small, poorly fitted or top-dose-only effect, or another doubt; inactive = no such curve, though single readings can be large; an effect the other way counts as inactive or inconclusive.

Chains of the proteins cited; added tags and fusions are not shown. Lines headed by an entry give the natural chain unless they say otherwise; changes in a name come on top.
UniProt P19793: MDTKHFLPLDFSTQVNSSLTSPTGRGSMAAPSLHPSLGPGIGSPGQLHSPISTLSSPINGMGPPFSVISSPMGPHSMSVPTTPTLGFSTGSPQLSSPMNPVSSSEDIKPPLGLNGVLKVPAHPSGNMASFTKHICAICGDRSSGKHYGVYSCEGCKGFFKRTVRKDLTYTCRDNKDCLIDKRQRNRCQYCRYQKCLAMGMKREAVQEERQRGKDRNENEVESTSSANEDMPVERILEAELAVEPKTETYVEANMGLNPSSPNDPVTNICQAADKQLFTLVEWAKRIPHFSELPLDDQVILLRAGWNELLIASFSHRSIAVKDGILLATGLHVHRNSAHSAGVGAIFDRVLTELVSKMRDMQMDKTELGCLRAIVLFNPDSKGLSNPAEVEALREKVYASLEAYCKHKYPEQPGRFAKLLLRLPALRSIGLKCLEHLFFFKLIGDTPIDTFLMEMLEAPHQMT
UniProt P10828: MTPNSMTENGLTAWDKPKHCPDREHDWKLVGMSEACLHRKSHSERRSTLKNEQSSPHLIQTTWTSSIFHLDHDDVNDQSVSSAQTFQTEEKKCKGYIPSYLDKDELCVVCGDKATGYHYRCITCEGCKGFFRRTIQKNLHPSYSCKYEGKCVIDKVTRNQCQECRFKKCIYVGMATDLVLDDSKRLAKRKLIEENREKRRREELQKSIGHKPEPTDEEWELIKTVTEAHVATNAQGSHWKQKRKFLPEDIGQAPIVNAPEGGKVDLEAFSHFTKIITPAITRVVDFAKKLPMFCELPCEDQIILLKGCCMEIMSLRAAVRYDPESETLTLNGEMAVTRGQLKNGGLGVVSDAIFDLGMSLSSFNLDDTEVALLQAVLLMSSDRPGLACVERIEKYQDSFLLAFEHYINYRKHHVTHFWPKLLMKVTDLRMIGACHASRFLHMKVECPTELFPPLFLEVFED
UniProt P08684, whole entry, looked up: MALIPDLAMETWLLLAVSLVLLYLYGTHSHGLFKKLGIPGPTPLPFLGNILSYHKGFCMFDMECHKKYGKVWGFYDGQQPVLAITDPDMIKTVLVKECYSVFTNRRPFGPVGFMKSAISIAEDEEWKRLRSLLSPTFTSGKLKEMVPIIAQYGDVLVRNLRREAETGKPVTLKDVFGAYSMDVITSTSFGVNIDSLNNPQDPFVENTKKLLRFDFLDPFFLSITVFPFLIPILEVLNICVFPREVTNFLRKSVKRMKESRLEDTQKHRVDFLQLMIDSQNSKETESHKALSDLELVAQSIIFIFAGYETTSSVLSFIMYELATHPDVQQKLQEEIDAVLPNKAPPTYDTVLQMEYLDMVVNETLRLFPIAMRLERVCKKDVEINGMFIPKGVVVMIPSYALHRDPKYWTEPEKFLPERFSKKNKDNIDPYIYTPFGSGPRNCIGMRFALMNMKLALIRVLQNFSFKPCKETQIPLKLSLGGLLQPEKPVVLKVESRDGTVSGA
UniProt P01375, whole entry, looked up: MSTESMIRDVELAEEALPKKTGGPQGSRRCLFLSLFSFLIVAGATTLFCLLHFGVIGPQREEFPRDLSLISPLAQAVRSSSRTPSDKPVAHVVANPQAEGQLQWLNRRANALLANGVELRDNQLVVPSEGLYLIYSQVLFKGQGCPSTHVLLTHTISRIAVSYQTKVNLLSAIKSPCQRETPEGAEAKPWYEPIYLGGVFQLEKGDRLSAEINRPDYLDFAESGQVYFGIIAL
UniProt P51449: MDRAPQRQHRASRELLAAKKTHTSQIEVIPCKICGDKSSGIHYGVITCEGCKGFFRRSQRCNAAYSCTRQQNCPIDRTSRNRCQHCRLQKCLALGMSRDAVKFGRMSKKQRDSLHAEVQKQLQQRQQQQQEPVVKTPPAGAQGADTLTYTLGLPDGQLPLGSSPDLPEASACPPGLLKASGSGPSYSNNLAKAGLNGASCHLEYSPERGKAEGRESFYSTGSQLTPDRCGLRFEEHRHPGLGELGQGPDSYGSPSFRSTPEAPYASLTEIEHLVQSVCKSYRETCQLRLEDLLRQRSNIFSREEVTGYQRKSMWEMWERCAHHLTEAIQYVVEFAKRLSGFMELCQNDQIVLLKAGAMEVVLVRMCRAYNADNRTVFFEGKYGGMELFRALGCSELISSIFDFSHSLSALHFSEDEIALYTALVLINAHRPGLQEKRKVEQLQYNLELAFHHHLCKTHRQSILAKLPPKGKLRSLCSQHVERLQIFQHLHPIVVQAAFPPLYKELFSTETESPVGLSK
UniProt Q03181: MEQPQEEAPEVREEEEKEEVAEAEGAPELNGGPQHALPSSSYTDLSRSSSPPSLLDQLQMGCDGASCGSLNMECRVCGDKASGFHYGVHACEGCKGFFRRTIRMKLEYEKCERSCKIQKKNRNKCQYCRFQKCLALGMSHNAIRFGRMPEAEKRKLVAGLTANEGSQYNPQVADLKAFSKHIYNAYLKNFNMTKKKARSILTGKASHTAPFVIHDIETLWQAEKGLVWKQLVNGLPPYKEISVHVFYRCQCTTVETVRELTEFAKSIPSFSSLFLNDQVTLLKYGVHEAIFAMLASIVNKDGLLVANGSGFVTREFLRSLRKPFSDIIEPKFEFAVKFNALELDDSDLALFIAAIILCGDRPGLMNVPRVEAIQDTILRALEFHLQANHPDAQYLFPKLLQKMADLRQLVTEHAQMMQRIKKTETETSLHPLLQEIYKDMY

How the values were obtained:
[1] = Cellular Toxicity (caspase-3) SK-N-SH (AID 661); details: SK-N-SH caspase-3 activation, qHTS, DMSO as zero, staurosporine as full; at 91.7 µM (top of the series);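 also: 0% = DMSO basal and 100% = 10 µM staurosporine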
Summary of the method: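 Caspase 3/7 activation was read by luminogenic substrate cleavage after 16 hour treatment of SK-N-SH cells. Signal was scaled between DMSO and 10 uM staurosporine, and concentration-response data were fitted with the Hill equation for AC50.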

[2] = Cell Viability - LYMP2-001 (AID 921); details: LYMP2-001 lymphoblastoid cell viability; activity change, negative = cytotoxic: at 92.2 µM (top of the series); also: nearly all actives have a fitted effect of over 70% in size; also: potency is read from the fitted curve at half-maximal effect;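 as to activity change, negative = cytotoxic: 0% = DMSO only and full inhibition = tetraoctylammonium bromide control wells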
Summary of the method: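 qHTS, 1536-well; lymphoblastoid cells, 24 hr compound, 37 C; ATP by CellTiter-Glo, 30 min RT; luminescence; Hill-fit AC50.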

[3] = biological target: Bile acid receptor (Homo sapiens) (UniProt Q96RI1); assay: qHTS assay for small molecule antagonists of farnesoid X receptor signaling (AID 588526; calls by dose curve; also: % is scaled to controls: 0 for no effect and ±100 for the full control effect); details: HEK293T FXR-UAS-bla, beta-lactamase ratio, antagonist mode; activity change, negative = inhibition: at 76.7 µM (top of the series)
Summary of the method: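 Concentration-response titrations were fitted to the Hill equation for half-maximal inhibition and maximal response, with data normalised to 50 uM chenodeoxycholic acid and DMSO control wells. Cells: FXR-UAS-bla HEK293T, dialyzed FBS.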

[4] = biological target: Glucocorticoid receptor (Homo sapiens) (UniProt P04150); assay: qHTS assay for small molecule agonists of glucocorticoid receptor signaling (AID 588532; active = well fitted curve in the direction sought with a large enough effect in the signal ratio, with a control signal flat; inconclusive = small, poorly fitted or top-dose-only effect, or a change in a side signal; inactive = no such curve, though single readings can be large or run the other way; the % refers to the signal ratio; also: potency is read from the fitted curve at half-maximal effect); details: HeLa MMTV-bla, beta-lactamase ratio, agonist, 18 h; activation: active compounds read high, percent of dexamethasone control, DMSO zero
Summary of the method: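 Titration series, up to 92 uM, applied to GRE-bla HeLa cells for 18 h at 37 C. Detection by CCF4 FRET substrate after 2 h at RT.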

[5] = biological target: Retinoic acid receptor RXR-alpha (Homo sapiens) (UniProt P19793); assay: qHTS assay for small molecule agonists of retinoid X receptor alpha signaling (AID 588544; calls by dose curve;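 also: 0% = DMSO basal wells and 100% = reference agonist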); details: HEK293T RXRa-UAS-bla, beta-lactamase reporter, 18 h; activation: at 76.7 µM (top of the series)
[6] = qHTS assay to identify small molecules that stimulate interleukin-8 (IL-8) secretion (AID 651758; active = well fitted activation curve with a large enough effect in the signal ratio; inconclusive = small, poorly fitted or top-dose-only effect, or effect the other way, or a change in a side signal; the % refers to the signal ratio; also: potency is read from the fitted curve at half-maximal effect; as to activation: 0% is about no effect); details: HTRF ratio (665/615); activation: at 92.2 µM (top of the series)
Summary of the method: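 Quantitative HTS in THP-1 monocytic cells at 2000 cells per well, with 16 hrs compound incubation at 37 C. IL-8 in the medium was then quantified by HTRF immunoassay, read after 1-3 hrs at room temperature.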

[7] = qHTS assay for small molecule agonists of the antioxidant response element (ARE) signaling pathway measured by Nrf2-dependant transcriptional activity - cell viability counter screen (AID 720653; active = well fitted curve in the direction sought with a large enough effect in the repeat runs; inconclusive = weak or mixed curves; inactive = no such curve, though single readings can be large; an effect the other way counts as inactive or inconclusive; also: % is scaled to controls: 0 for no effect and ±100 for the full control effect); details: ARE-bla HepG2 viability, CellTiter-Glo ATP luminescence, 16 h; max response: active compounds read low
Summary of the method: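 ARE-bla HepG2 cells (2,000/well) rested 5 hrs at 37C/5% CO2, then exposed to compounds in DMSO for 16 hrs. Viability was read in the same wells as intracellular ATP by luminescence, 30 min at room temperature after reagent addition.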

[8] = Cell Viability - LYMP2-026 (AID 989); also: % is scaled to controls: 0 for no effect and ±100 for the full control effect; nearly all actives have a fitted effect of over 50% in size
Summary of the method: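 Cytotoxicity read as ATP-dependent luminescence (CellTiter-Glo, 30 min room temperature) after 24 h compound treatment at 37 C. LYMP2-026 lymphoblastoid line seeded at 2500 cells/well; AC50 derived by standard Hill equation.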

[9] = biological target: Thyroid hormone receptor beta (Homo sapiens) (UniProt P10828); assay: qHTS assay for small molecule antagonists of thyroid hormone receptor beta signaling (AID 588547; active = well fitted inhibition curve with a large enough effect in the signal ratio, with a control signal flat, not every such curve was filed as active; inconclusive = small, poorly fitted or top-dose-only effect, or effect the other way, or a change in a side signal; the % refers to the signal ratio;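 also: cells stimulated with 0.4 nM T3 agonist during compound exposure; % is scaled to controls: 0 for no effect and ±100 for the full control effect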); details: TR-UAS-bla HEK293, beta-lactamase ratio, antagonist mode, 18 h
Summary of the method: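 TR-UAS-bla GripTite HEK293 cells in 2% charcoal/dextran FBS medium were preincubated 4 h at 37 C, given compound (0.59 nM to 92 uM) plus 0.4 nM T3 (final) for 18 h, then CCF4 for 2 h at RT; Hill fit gave IC50.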

[10] = qHTS assay for small molecule agonists of the antioxidant response element (ARE) signaling pathway (AID 651741; active = well fitted activation curve with a large enough effect in the signal ratio; inconclusive = small, poorly fitted or top-dose-only effect, or effect the other way, or a change in a side signal; the % refers to the signal ratio; also: potency is read from the fitted curve at half-maximal effect; as to activation: % of control where 0% means no effect); details: HepG2 ARE-bla reporter, beta-lactamase FRET ratio, 16 h; activation: at 96 µM (top of the series) unless noted
Summary of the method: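 Reporter: beta-lactamase under ARE, stably in HepG2. Exposure: 16 h, 37 C, compounds delivered in DMSO by pin tool after 5 h cell preincubation. Readout: FRET substrate fluorescence after 2 h at RT.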

[11] = qHTS assay for small molecule antagonists of the retinoid-related orphan receptor gamma (ROR-gamma) signaling pathway - cell viability counter screen (AID 720652; active = well fitted curve in the direction sought with a large enough effect in the repeat runs; inconclusive = weak or mixed curves; inactive = no such curve, though single readings can be large; an effect the other way counts as inactive or inconclusive;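 also: CHO reporter cells with doxycycline-induced ROR-gamma expression; compound exposure lasted 16 hr before ATP read; % is scaled to controls: 0 for no effect and ±100 for the full control effect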)
Summary of the method: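 Cytotoxicity counter screen: intracellular ATP (CellTiter-Glo luminescence) measured in the doxycycline-induced CHO RORE-luciferase reporter line after 16 hr compound exposure at 37 C, 5% CO2.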

[12] = biological target: Cytochrome P450 3A4 (Homo sapiens) (UniProt P08684); assay: qHTS Assay for Inhibitors and Substrates of Cytochrome P450 3A4 (AID 884); details: recombinant CYP3A4, Luciferin-PPXE luminescence; activity change, negative = inhibition: at 57.1 µM (top of the series) unless noted; also: % is scaled to controls: 0 for no effect and ±100 for the full control effect; nearly all actives have a fitted effect of over 50% in size
Summary of the method: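 Luminescent readout of luciferin produced by CYP3A4 (20 nM) dealkylation of Luciferin-PPXE, 25 uM (its KM). NADPH-driven reaction ran 60 min at RT after 10 min compound preincubation; data scaled to 57 uM ketoconazole as 100% inhibition.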

[13] = biological target: Cytochrome P450 3A4 (Homo sapiens) (UniProt P08684); assay: qHTS Assay for Activators of Cytochrome P450 3A4 (AID 885); also: potency is read from the fitted curve at half-maximal effect; nearly all actives have a fitted effect of over 65% in size
Summary of the method: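 Human CYP3A4 dealkylates Luciferin-PPXE to luciferin, which luciferase detection converts to light. Substrate was at its KM (25uM), buffer 200mM KPO4, reaction 60 min at RT.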

[14] = Cell Viability - LYMP2-003 (AID 965); details: LYMP2-003 lymphoblastoid cell viability; activity change, negative = cytotoxicity: at 92.2 µM (top of the series);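 also: cells exposed to compounds for 24 h before reading; nearly all actives have a fitted effect of over 50% in size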; also: potency is read from the fitted curve at half-maximal effect;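 as to activity change, negative = cytotoxicity: 0% = DMSO only and full effect = 92 µM tetraoctylammonium bromide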
Summary of the method: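 Acute cytotoxicity is scored as a concentration-dependent drop in intracellular ATP, measured by luciferase luminescence in human lymphoblastoid cells treated for 24 hours at 37 C. AC50 values derive from Hill-equation modelling.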

[15] = Cell Viability - LYMP2-017 (AID 972); details: LYMP2-017 lymphoblastoid cell viability; activity change, negative = cytotoxicity: at 92.2 µM (top of the series); also: % is scaled to controls: 0 for no effect and ±100 for the full control effect; nearly all actives have a fitted effect of over 55% in size
Summary of the method: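 CellTiter-Glo luminescence (cellular ATP, 30 min RT) measured cytotoxicity after 24 hr compound treatment at 37 C. Cells were a human lymphoblastoid line, LYMP2-017, plated at 2500/well and incubated 5 hr first; concentration-response fitted with Hill equation for AC50.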

[16] = biological target: Glucocorticoid receptor (Homo sapiens) (UniProt P04150); assay: qHTS assay for small molecule antagonists of glucocorticoid receptor signaling (AID 588533; active = well fitted inhibition curve with a large enough effect in the signal ratio, with a control signal flat, not every such curve was filed as active; inconclusive = small, poorly fitted or top-dose-only effect, or effect the other way, or a change in a side signal; the % refers to the signal ratio); details: HeLa MMTV-bla, GRE beta-lactamase ratio, antagonist mode, 18 h; activity change, negative = inhibition: at 76.8 µM (top of the series)
[17] = MultiTox-Fluor Cytotoxicity Assay - LYMP1-001 - Live Cells (AID 947); also: potency is read from the fitted curve at half-maximal effect
[18] = Cell Viability - LYMP2-018 (AID 985);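 also: plate controls were DMSO only for no effect and tetraoctylammonium bromide at 92 µM for full effect; nearly all actives have a fitted effect of over 50% in size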
Summary of the method: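 Viability read as CellTiter-Glo luminescence (cellular ATP) after 24 hr compound exposure at 37 C of 2500 LYMP2-018 lymphoblastoid cells/well, pre-plated 5 hr. Hill-equation modelling gave AC50.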

[19] = biological target: Tumor necrosis factor (Homo sapiens) (UniProt P01375); assay: qHTS assay to identify small molecules that stimulate Tumor Necrosis Factor-alpha (TNF-alpha) secretion (AID 651757; active = well fitted curve in the direction sought with a large enough effect in the signal ratio; inconclusive = small, poorly fitted or top-dose-only effect, or a change in a side signal; inactive = no such curve, though single readings can be large or run the other way; the % refers to the signal ratio; also: 0% is about no effect); details: Human cells, HTRF 665/615 ratio; activation (TNF-alpha secretion): at 92.2 µM (top of the series)
Summary of the method: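 Secreted TNF-alpha quantified by TR-FRET sandwich of two labeled anti-TNF-alpha antibodies, incubated 3 hr at room temperature. Preceded by 17 hr, 37 C compound treatment of THP-1 cells at 3000 cells/well.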

[20] = biological target: Nuclear receptor ROR-gamma (Homo sapiens) (UniProt P51449); assay: qHTS assay for small molecule antagonists of the retinoid-related orphan receptor gamma (ROR-gamma) signaling pathway (AID 651802);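 also: CHO cells with doxycycline-induced ROR-gamma expression; luciferase reporter luminescence driven by ROR response element; % is scaled to controls: 0 for no effect and ±100 for the full control effect; nearly all actives have a fitted effect of over 60% in size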
Summary of the method: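 Luminescence (One-Glo, 30 min RT) measured 16 h after compound addition and doxycycline induction at 37C. Reporter: RORE-luciferase under TET-inducible ROR-gamma in CHO cells.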

[21] = biological target: Bile acid receptor (Homo sapiens) (UniProt Q96RI1); assay: qHTS assay for small molecule agonists of farnesoid X receptor signaling (AID 588527; calls by dose curve;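 also: 0% = vehicle basal and 100% = reference agonist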); details: HEK293T FXR-UAS-bla, beta-lactamase ratio, 16 h; activation: active compounds read high
Summary of the method: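 FXR-UAS-bla HEK293T cells (10% dialyzed FBS) preincubated 5-7 h at 37 C, then compounds at up to 92 uM for 16 h at 37 C. CCF4 beta-lactamase read-out after 2 h RT. Normalized to chenodeoxycholic acid (100 uM) and DMSO; Hill fit gave EC50 and efficacy.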

[22] = biological target: Peroxisome proliferator-activated receptor delta (Homo sapiens) (UniProt Q03181); assay: qHTS assay for small molecule antagonists of peroxisome proliferator-activated receptor delta signaling (AID 588535; active = well fitted inhibition curve with a large enough effect in the signal ratio, with a control signal flat, not every such curve was filed as active; inconclusive = small, poorly fitted or top-dose-only effect, or effect the other way, or a change in a side signal; inactive = no such curve, though single readings can be large or run the other way; the % refers to the signal ratio); details: HEK293T PPARd-UAS-bla, beta-lactamase FRET ratio, 18 h; activity change, negative = inhibition: at 76.7 µM (top of the series) unless noted
Summary of the method: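 Inhibition of PPAR-delta response element-driven beta-lactamase expression is measured in HEK293T cells exposed to a compound titration series for 18 hrs at 37 C. Half-maximal inhibition comes from Hill equation fitting.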

[23] = biological target: Peroxisome proliferator-activated receptor gamma (Homo sapiens) (UniProt P37231); assay: qHTS assay for small molecule antagonists of peroxisome proliferator-activated receptor gamma signaling (AID 588537; active = well fitted inhibition curve with a large enough effect in the signal ratio, with a control signal flat, not every such curve was filed as active; inconclusive = small, poorly fitted or top-dose-only effect, or effect the other way, or a change in a side signal; the % refers to the signal ratio;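 also: reporter cells co-stimulated with 50 nM rosiglitazone agonist during compound treatment; % of control where 0% means no effect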); details: HEK293 PPARg-UAS-bla, beta-lactamase ratio, antagonist mode; activity, negative = inhibition: at 76.8 µM (top of the series) unless noted
Summary of the method: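 Compounds are tested as concentration series for inhibition of rosiglitazone-driven (50 nM) reporter expression in GeneBLAzer PPAR-gamma-UAS-bla HEK293 cells. After 16 h at 37 C, CCF4 substrate is added for 2 h at room temperature and blue/green fluorescence is measured.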

[24] = Cell Viability - LYMP2-009 (AID 968); details: LYMP2-009 lymphoblastoid cell viability; activity change, negative = viability loss: at 92.2 µM (top of the series); also: potency is read from the fitted curve at half-maximal effect; nearly all actives have a fitted effect of over 55% in size
[25] = Cell Viability - LYMP2-021 (AID 974); also: % is scaled to controls: 0 for no effect and ±100 for the full control effect; nearly all actives have a fitted effect of over 55% in size
Summary of the method: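 AC50 values come from Hill-equation fits to CellTiter-Glo luminescence (ATP content), read after 24 hour compound exposure at 37 C of 2500 LYMP2-021 lymphoblastoid cells/well; tetraoctylammonium bromide as positive control.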

[26] = Cell Viability - LYMP2-008 (AID 980); also: potency is read from the fitted curve at half-maximal effect; nearly all actives have a fitted effect of over 60% in size
Summary of the method: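 Cytotoxicity determined from ATP-dependent luciferase luminescence (CellTiter-Glo) following 24 h compound exposure of human lymphoblastoid LYMP2-008 cells at 37 C. Concentration-response data fitted to the Hill equation to give AC50.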

[27] = Cell Viability - LYMP2-010 (AID 981); also: potency is read from the fitted curve at half-maximal effect; nearly all actives have a fitted effect of over 55% in size
Summary of the method: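 CellTiter-Glo ATP luminescence measured cytotoxicity after 24 h compound exposure at 37 C. LYMP2-010 cells were seeded at 2500/well, with tetraoctylammonium bromide as control; concentration-response curves gave AC50 values by the Hill equation.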

[28] = Cell Viability - LYMP2-014 (AID 983)
Summary of the method: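 Intracellular ATP loss, read by luciferase luminescence, measures acute cytotoxicity after 24 h compound exposure of lymphoblastoid LYMP2-014 cells (2500/well, 37 C). Concentration-response data fitted to the Hill equation for AC50.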

O=Cc1ccccc1Cl
inconclusive: Potency [2] 12.6 µM [cytotoxic, single point] | activity change, negative = inhibition [3] -19.2% | Potency [4] 0.0224 µM [side channel, falling, full curve, poor fit] | activation [6] 7.6%
inactive: caspase-3 activation [1] 0.971% | Potency [5] | max response [7] -4.5%

COC(=O)CCCC(=O)OC
inconclusive: activation [10] 6.13% | Potency [6] 75 µM [activator, single point]
inactive: caspase-3 activation [1] 0.0903% | Potency [8] | Potency [3] | activity change % (negative = inhibition) [9] -27% | Potency [11]

CCCCC(CC)CNCC(CC)CCCC (stereo not drawn)
inconclusive: Potency [13] 0.158 µM [activator, full curve, poor fit] | activity change, negative = inhibition [3] -7.13% | Potency [4] 0.316 µM [side channel, falling, full curve, poor fit] | activity change, negative = inhibition [16] -27.3% | activation [6] 23.1%
inactive: Potency [12] | Potency [2] | Potency [14] | Potency [15] | activity change % (negative = inhibition) [9] 4.7%

C=CCOC(=O)CCCCCCCC
inconclusive: Potency [17] 31.6 µM [cytotoxic, full curve, poor fit] | Potency [14] 79.4 µM [rising, single point]
inactive: Potency [18] | Potency [3] | Potency [19] | Potency [6] | Potency [20]

CC(C)(C)c1ccc(C(=O)O)cc1
inconclusive: activity, negative = inhibition [23] -20.1% | activation [10] -7.22%
inactive: Potency [3] | activation [21] -9.49% | Potency [16] | Potency [22] | Potency [5] | activity change % (negative = inhibition) [9] 0.292%

O=C1C=CCCC1
inactive: Potency [25] | Potency [3] | Potency [22]
inconclusive: Potency [24] 31.6 µM [cytotoxic, partial curve, poor fit] | Potency [26] 39.8 µM [cytotoxic, partial curve, poor fit] | Potency [27] 0.0013 µM [cytotoxic] | Potency [28] 20 µM [cytotoxic, full curve, poor fit] | Potency [10] 84.1 µM [activator, single point] | activation [6] -7.51%
